# Target: BMP on collagen sponge (Homo sapiens, UniProt P12643)
# By UniProt entry, the sequences of proteins in these tests, tags left out. Residues count along the entry.
# UniProt P12643, 283-396: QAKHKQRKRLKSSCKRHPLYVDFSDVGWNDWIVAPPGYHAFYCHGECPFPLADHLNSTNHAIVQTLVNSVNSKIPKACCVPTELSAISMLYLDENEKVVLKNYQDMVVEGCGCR
# Settings: IFBM mixed with BMP, 1.5 hours on sponge, compared to no IFBM (FIG. 5)
# Description: To each well, a 2/16″ diameter collagen sponge (Medtronic) was added. The collagen and peptide solutions were allowed to incubate for 1.5 hours at room temperature. Sponges were then rinsed three times with 200 μL Medtronic buffer at 2200 rpm for 1 minute. To each sponge, a primary antibody directed at BMP (diluted 1:1000; R&D Systems #MAB3552) was added for 1 hour at room temperature. A secondary antibody conjugated to alkaline phosphatase (1:5000) was then incubated in the system for 0.5 hour at room temperature.
smiles,measurement,value
CC(C)C[C@H](NC(=O)[C@H](C)NC(=O)[C@H](CO)NC(=O)[C@H](Cc1ccccc1)NC(=O)[C@H](CO)NC(=O)[C@H](CO)NC(=O)[C@H](Cc1ccccc1)NC(=O)[C@H](C)NC(=O)[C@H](CO)NC(=O)[C@H](CC(=O)O)NC(=O)[C@H](CO)NC(=O)[C@H](CO)NC(=O)[C@H](CCCNC(=N)N)NC(=O)[C@@H](N)CO)C(=O)N[C@@H](CCC(=O)O)C(=O)NCC(=O)N[C@@H](CO)C(=O)N[C@H](C(=O)N[C@H](C(=O)N[C@@H](CO)C(=O)N[C@@H](CCCNC(=N)N)C(=O)NCC(=O)N[C@@H](CO)C(=O)N[C@@H](CO)C(=O)NCC(=O)N[C@@H](CCCCNC(=O)CCCC[C@@H]1SC[C@@H]2NC(=O)N[C@@H]21)C(N)=O)C(C)C)C(C)C [compound 2006],BMP retained on collagen sponge,increased retention of BMP to the sponge is not seen

# From patent US8030452B2, “IFBM'S to promote the specific attachment of target analytes to the surface of orthopedic implants” (priority 2004, dated 2011)
